# Experimental data taken from publication PMC10904736, “A c-di-GMP signaling module controls responses to iron in Pseudomonas aeruginosa” (Nature Communications, 2024).
# No constants are given. Whether binding was seen depends on the method and setting. Sequences can lack the tags named with a protein.
# Biological target: IsmP fragment with a defect in the PAS domain, bacterial two-hybrid fusion (Pseudomonas aeruginosa PAO1)
# Assay: two-hybrid; bacterial two-hybrid (BTH kit, EUROMEDEX): pKT25 and pUT18C plasmids in E. coli BTH101, LB agar with 1 mM IPTG and X-Gal, 30 °C, 24 h; blue colonies, β-galactosidase activity in Miller units
binder,measurement,value
"ImcA (iron modulator of c-di-GMP A, PA1851), full length, bacterial two-hybrid fusion (protein, UniProt Q9I2P4 1-401) MLARDSLVQAGLPDNPYARQLRNGFRWLRFEKELENEFREFLSWNSLMQRRAAIGVAFLIWALFIVADWMMVDIRLHPSLFEQLLGVRLGMIGLLLVVWPAAFLPSLRKVGDAIAPYCLLLINLAVLACDVLFEWHGVPRFTQLGATLGILAVFFPLGLAFWACVRLALLCLALNLAVFLLFGGEENLRTNLLNTLYNGLVVLICSFALYLQDYAQREQFLGRRLLGMMAEQDSLTGLVNRRYYELLAQRALEQGAREEKGVALILVDVDDFKAYNDHYGHPAGDAALRQLGVVLRQGARRPLDIAARLGGEEFAVLLYDSEEGNTLAIAERLRQAVEALGIEHLGSSAGPCLTISLGVAYSTSGMGLDALYREADRALYEAKDAGRNAVRVAFRQHDRLE",binding,no binding
